Experimental data reported in publication PMC8120823.
These are yes or no findings as the source states them, for the method shown. In cells and extracts the contact can be indirect. Sequences can lack the tags named with a protein.

Target: T1, 6His-SCO4804 recombinant protein (S. coelicolor) (UniProt Q9KY60)
T1 sequence: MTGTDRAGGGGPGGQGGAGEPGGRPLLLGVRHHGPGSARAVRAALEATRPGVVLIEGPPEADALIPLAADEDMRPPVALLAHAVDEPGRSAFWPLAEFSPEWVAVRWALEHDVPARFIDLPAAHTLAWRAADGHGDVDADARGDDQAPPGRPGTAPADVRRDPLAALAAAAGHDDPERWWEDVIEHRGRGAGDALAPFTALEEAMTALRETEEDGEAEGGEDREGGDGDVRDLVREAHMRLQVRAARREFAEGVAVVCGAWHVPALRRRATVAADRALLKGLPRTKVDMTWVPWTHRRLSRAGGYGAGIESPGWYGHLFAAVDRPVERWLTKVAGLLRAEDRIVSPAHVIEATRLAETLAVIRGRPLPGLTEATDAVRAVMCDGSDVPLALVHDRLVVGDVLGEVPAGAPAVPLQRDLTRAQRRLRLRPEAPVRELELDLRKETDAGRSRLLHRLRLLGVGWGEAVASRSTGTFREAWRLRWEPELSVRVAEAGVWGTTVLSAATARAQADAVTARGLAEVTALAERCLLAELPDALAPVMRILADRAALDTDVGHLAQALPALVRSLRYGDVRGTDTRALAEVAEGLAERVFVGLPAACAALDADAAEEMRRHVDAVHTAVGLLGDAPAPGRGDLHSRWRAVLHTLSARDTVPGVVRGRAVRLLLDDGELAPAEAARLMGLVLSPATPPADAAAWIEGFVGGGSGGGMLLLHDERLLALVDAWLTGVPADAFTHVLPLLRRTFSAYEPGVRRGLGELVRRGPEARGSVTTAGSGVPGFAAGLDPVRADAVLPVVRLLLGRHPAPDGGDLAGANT
Assay: pull-down; 6His-SCO4804 bound to Ni-NTA agarose resin, incubated with lysate of the TopA-induced PS04 strain; TN buffer with 40 mM imidazole; elution with 200 mM imidazole; Western blot with anti-TopA polyclonal antibodies and 6xHis tag antibody; only the target purified

B1: topoisomerase I (TopA) (enzyme, UniProt Q9X909 1-952)
chain: MSPTSETAKGGRRLVIVESPAKAKTIKGYLGPGYVVEASVGHIRDLPSGAAEVPEKYTGEVRRLGVDVEHDFQPIYVVNADKKSQVKKLKDLLKESDELFLATDEDREGEAIAWHLQEVLKPKIPVKRMVFHEITKDAIRAAVANPRELNQKLVDAQETRRILDRLYGYEVSPVLWKKVMPRLSAGRVQSVATRLVVERERERIAFRSAEYWDLTGTFATGRAGDASDPSSLVARLQTVDGRRVAQGRDFDSLGQLKSANTLHLDEANARALAAALENTRFAVRSVESKPYRRSPYAPFRTTTLQQEASRKLGFGAKSTMQVAQKLYENGYITYMRTDSTTLSDTAVSAARAQVTQLYGADYLPPQPRTYAGKVKNAQEAHEAIRPSGDRFRTPAETGLTGDQFKLYELIWKRTVASQMKDATGNSVTVKIGGAASDGRDVEFSASGKTITFHGFLKAYVEGADDPNAELDDRERRLPQVAEGDALTAEEITVDGHATKPPARYTEASLVKELEEREIGRPSTYASIIGTILDRGYVFKKGTALVPSFLSFAVVNLLEKHFGRLVDYDFTARMEDDLDRIARGEAQSVPWLRRFYFGEGDGTGGGGAADAGNGDGDHLGGLKELVTDLGAIDAREVSSFPVGNDIKLRVGRYGPYVERGEKDAENHQRADVPEDLAPDELSVELAEELLAKPSGDFELGTDPATGHAIVAKDGRYGPYVTEVLPEGTPKTGKNAVKPRTASLFKSMSLDTVTLDDALKLMSLPRVVGADAEGVEITAQNGRYGPYLKKGTDSRSLQTEDQLFEITLEEALAIYAQPKQRGRAAAKPPLKELGTDPVSEKPVVVKDGRFGPYVTDGETNATLRSDDSVEEITPERGYELLAEKRAKGPAKKTAKKAVKKTAAKKAPAKKAAATKKTAAAKTTAAKKTAAKSTAKKTTAKTAAKKATASKTSED
With B1 as the binder, how does the binding read?
Its binding is “no binding”.
